Assay results published in paper doi:10.1101/2022.06.13.495535.
These are yes or no findings as the source states them, for the method shown. Binding can be weak; no strength is given.

Biological target: T1, CCF-1 (CCR4 associated factor), deadenylase subunit of the CCR4-NOT complex (C. elegans) (UniProt Q17345)
T1 sequence: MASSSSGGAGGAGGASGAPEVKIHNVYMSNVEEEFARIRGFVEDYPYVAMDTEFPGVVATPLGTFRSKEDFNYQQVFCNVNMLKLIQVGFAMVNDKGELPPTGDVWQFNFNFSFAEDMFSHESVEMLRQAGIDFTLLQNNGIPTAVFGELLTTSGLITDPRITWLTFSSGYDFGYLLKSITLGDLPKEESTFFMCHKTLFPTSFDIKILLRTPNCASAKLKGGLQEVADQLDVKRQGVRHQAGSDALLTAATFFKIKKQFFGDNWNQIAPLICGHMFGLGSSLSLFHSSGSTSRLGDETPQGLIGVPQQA
Test: two-hybrid

binding: binds
Substance: CCR4, catalytic subunit of the CCR4-NOT complex (C. elegans)
